The target of assay [1] is T1, type I collagen from rat tail (rat) (UniProt P02454+P02466). Put plainly: ELISA; monomeric fraction of WT-MT1-MMP-ED (gel filtration peak #3) in serial dilution on wells coated with 10 µg/mL type I collagen; 1 h, 20 °C; 50 mM Tris pH 7.4, 150 mM NaCl, 5 mM CaCl2, 0.05% Tween; detected with anti-His-HRP; both purified. For orientation: ELISA stands for enzyme-linked immunosorbent assay.

Amino acid sequences for entries named in this document (tags omitted). A change or cut given only in a name is not applied to a line headed by its entry.
UniProt P02454: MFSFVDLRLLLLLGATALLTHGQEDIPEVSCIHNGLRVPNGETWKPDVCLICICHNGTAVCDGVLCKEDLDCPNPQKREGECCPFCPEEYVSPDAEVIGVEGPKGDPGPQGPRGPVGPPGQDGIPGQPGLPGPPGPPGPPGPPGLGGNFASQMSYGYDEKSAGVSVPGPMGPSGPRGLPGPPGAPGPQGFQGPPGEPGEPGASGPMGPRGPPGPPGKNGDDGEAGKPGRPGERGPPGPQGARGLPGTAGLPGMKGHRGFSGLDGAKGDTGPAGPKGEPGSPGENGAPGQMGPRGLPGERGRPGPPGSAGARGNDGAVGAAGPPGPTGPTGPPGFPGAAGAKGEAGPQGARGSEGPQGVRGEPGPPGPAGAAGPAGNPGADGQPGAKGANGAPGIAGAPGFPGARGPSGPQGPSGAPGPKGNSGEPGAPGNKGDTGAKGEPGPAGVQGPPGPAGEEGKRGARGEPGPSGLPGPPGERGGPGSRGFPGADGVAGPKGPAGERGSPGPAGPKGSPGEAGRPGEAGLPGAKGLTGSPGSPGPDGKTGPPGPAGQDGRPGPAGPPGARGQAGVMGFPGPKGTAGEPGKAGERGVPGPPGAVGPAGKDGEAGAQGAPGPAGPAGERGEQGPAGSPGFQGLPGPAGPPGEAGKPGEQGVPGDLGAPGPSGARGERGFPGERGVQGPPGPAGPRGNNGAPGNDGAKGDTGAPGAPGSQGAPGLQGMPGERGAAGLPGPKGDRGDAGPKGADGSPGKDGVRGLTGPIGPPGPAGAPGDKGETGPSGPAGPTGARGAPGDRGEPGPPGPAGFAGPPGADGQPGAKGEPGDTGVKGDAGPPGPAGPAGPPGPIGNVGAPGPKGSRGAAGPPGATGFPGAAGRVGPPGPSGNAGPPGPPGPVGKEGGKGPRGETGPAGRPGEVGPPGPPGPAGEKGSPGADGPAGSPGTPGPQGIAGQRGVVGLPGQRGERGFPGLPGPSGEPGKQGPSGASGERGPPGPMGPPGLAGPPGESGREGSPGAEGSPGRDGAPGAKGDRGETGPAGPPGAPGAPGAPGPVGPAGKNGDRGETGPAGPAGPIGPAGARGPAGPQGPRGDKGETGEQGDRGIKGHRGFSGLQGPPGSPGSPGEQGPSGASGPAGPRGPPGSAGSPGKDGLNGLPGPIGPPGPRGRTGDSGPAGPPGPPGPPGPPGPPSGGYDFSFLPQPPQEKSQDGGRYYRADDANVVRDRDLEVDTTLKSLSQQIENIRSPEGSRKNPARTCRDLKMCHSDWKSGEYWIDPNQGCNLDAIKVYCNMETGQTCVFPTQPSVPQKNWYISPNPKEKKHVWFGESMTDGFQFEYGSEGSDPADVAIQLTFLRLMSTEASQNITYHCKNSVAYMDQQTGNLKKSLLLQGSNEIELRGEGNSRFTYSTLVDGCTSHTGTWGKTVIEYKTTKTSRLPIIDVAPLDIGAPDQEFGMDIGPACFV
UniProt P02466: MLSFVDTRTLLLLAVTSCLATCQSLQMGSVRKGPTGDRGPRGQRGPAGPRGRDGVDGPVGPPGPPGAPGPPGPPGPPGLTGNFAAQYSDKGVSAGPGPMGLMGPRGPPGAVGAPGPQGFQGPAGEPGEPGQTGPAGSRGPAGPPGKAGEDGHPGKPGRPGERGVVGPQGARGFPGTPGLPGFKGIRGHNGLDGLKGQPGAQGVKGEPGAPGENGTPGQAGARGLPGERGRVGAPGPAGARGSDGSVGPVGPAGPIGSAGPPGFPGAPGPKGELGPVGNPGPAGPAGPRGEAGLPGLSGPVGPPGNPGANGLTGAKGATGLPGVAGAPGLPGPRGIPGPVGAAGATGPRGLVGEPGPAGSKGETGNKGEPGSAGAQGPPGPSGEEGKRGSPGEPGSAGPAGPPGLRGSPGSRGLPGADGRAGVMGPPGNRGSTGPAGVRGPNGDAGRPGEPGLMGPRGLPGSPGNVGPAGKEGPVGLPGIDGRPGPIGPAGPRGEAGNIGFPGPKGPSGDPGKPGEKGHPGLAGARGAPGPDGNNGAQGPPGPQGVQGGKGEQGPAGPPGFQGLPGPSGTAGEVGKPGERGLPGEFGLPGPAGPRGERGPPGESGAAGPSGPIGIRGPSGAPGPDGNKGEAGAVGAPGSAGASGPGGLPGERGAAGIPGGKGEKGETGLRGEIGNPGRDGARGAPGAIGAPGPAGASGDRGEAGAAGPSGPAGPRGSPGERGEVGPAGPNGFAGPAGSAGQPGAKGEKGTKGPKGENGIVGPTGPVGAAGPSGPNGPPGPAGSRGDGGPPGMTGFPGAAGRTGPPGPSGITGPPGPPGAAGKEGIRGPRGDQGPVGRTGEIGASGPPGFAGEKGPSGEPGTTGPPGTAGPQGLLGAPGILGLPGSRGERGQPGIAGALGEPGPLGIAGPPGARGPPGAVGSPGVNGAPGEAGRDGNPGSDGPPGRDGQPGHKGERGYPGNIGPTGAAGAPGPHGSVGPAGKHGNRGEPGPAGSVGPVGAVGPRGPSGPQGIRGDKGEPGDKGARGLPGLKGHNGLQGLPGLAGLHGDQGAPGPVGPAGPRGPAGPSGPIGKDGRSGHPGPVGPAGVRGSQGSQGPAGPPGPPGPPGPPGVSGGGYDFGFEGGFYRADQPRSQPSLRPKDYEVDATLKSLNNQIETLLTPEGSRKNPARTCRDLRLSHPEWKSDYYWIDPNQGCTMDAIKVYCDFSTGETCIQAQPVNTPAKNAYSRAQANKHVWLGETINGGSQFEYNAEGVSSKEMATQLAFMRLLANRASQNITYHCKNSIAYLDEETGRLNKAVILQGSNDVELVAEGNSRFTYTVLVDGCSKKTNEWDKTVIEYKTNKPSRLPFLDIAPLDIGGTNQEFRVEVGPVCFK

Assay [2] has as its target T1, type I collagen from rat tail (rat). The experiment in a line: ELISA; unfractionated WT-MT1-MMP-ED (all oligomeric forms in the same sample) in serial dilution on wells coated with 10 µg/mL type I collagen; 1 h, 20 °C; 50 mM Tris pH 7.4, 150 mM NaCl, 5 mM CaCl2, 0.05% Tween; detected with anti-His-HRP; both purified.
For assay [3] the target is unchanged. Put plainly: ELISA; higher oligomeric fraction of WT-MT1-MMP-ED (gel filtration peak #1) in serial dilution on wells coated with 10 µg/mL type I collagen; 1 h, 20 °C; 50 mM Tris pH 7.4, 150 mM NaCl, 5 mM CaCl2, 0.05% Tween; detected with anti-His-HRP; both purified.
Assay [4] has the same target. The experiment in a line: ELISA; dimeric fraction of WT-MT1-MMP-ED (gel filtration peak #2) in serial dilution on wells coated with 10 µg/mL type I collagen; 1 h, 20 °C; 50 mM Tris pH 7.4, 150 mM NaCl, 5 mM CaCl2, 0.05% Tween; detected with anti-His-HRP; both purified.

No constants are given. Whether binding was seen depends on the method and setting. Some results given as binding are weak or reduced against the parent protein; the word gives no strength.

As to “WT-MT1-MMP ectodomain (membrane type 1 matrix metalloproteinase, MMP-14), secreted active form without the prodomain (from UniProt P50281 112-541) (enzyme)”, the binding result in assay [1] is on record as “binds weakly”; in assay [2] it was “binds”; in assay [3], “binds”; in assay [4], “binds”.

Values taken from paper PMC9406036.
